Experimental data published in paper PMC7403704.
These are yes or no findings as the source states them, for the method shown. Binding seen in cells or lysates may run through a third protein. Some entries that bind do so weakly or less than the wild type.

Protein sequences, listed by entry. Tags and fused reporters are not part of them. Residues count along the entry.
UniProt Q9WTX6: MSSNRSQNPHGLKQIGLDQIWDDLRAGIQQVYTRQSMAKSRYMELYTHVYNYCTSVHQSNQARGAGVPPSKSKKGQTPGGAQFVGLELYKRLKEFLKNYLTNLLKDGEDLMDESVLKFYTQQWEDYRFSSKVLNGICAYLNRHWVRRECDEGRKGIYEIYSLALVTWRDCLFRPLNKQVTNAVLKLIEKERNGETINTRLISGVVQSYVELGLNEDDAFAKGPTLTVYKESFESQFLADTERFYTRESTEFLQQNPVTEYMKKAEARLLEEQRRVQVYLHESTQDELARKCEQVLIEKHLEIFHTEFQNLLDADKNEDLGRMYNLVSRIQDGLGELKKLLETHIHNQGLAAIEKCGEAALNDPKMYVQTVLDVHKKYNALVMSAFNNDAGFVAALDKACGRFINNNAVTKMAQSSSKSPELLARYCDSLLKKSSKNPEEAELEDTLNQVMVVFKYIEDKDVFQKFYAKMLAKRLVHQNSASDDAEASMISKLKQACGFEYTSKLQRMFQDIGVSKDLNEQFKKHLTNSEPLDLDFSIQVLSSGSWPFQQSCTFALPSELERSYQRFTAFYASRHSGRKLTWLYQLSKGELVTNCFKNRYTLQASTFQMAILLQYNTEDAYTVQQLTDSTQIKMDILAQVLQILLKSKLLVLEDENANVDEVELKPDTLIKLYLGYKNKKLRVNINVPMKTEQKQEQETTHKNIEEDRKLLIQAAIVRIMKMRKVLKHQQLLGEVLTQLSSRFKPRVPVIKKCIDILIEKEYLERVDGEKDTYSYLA
UniProt P29595, residues 1-76: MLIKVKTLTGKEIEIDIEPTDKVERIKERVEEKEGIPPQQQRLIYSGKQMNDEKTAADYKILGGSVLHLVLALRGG

Molecular target: cullin 1, mouse (mouse (endogenous in colon tissue)) (UniProt Q9WTX6)
Test: co-IP; Pierce Co-Immunoprecipitation Kit, antibody immobilised on resin, eluate read by Western blot; mouse colon tissue; groups: Neg, DSS, hucMSC-Ex, and hucMSC-Ex transfected with miR-326 mimics, mimics NC, inhibitor or inhibitor NC

binding: binds
Substance: NEDD8 (neural precursor cell-expressed, developmentally downregulated gene 8), mouse (from UniProt P29595 1-76)
